In the assay the target is T1, recombinant CD70-Fc (Sino Biological) (UniProt P32970).
T1 sequence (looked up): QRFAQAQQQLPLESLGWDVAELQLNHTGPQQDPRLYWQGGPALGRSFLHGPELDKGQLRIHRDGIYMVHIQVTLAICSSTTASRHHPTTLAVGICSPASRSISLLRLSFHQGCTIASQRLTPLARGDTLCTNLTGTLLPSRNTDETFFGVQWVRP
The assay is described as follows: flow cytometry; CAR-transduced T cells stained with recombinant CD70-Fc, then goat anti-human IgG Fc PE. On the technique in general: In flow cytometry, cells or beads pass a laser one at a time.

Our source for the binding values is US20180230224A1 (KITE PHARMA, published 2018).

These are yes or no findings as the source states them, for the method shown. Some entries that bind do so weakly or less than the wild type. Sequences can lack the tags named with a protein.

B1: 1C8.1.001_C28T_28z (other)
chain: QVQLQESGPGLVKPSQTLSLTCTVSGDSIISGGYYWSWIRQHPGKGLEWIGYIFYSGSTDYNPSLKSRVTISVDTSKNQFSLKLSSVTAADTAVYYCARSGYSYALFDHWGQGTLVTVSSGGGGSGGGGSGGGGSDIQMTQSPSSLSASVGDRVTISCRASQFIGRYFNWYQQQPGKAPKVLIYAESSLQSGVPSRFSGSGSGTEFTLTISSLQPEDFARYYCQQSYSTPFTFGQGTKVEIKRAAALDNEKSNGTIIHVKGKHLCPSPLFPGPSKPFWVLVVVGGVLACYSLLVTVAFIIFWVRSKRSRLLHSDYMNMTPRRPGPTRKHYQPYAPPRDFAAYRSRVKFSRSADAPAYQQGQNQLYNELNLGRREEYDVLDKRRGRDPEMGGKPRRKNPQEGLYNELQKDKMAEAYSEIGMKGERRRGKGHDGLYQGLSTATKDTYDALHMQALPPR
notes: Chimeric antigen receptor on lentivirus-transduced human T cells; also called 28T-28z comprising a 1C8 scFv
With B1, the binding result was “binds”.

B2: 6E9.1_C28T_28z (other)
chain: QVHLVQSGAEVKKPGASVRVSCKASGYTFTSYYLHWVRQAPGQGLEWMGIVDPSGGSTSYDQKFQGRFTMTRDTSTSTVYMELSSLRSEDTAVYYCARDYGDYVFDYWGQGTLVTVSSGGGGSGGGGSGGGGSQSVLTQPPSASGTPGQRVTISCSGSSSNIGTNTVNWYQQLPGTAPQLLIYINNQRPSGVPDRFSGSKSGTSASLAISGLQSEDEADYYCATWDDSLNGPVVGGGTKLTVLGAAALDNEKSNGTIIHVKGKHLCPSPLFPGPSKPFWVLVVVGGVLACYSLLVTVAFIIFWVRSKRSRLLHSDYMNMTPRRPGPTRKHYQPYAPPRDFAAYRSRVKFSRSADAPAYQQGQNQLYNELNLGRREEYDVLDKRRGRDPEMGGKPRRKNPQEGLYNELQKDKMAEAYSEIGMKGERRRGKGHDGLYQGLSTATKDTYDALHMQALPPR
notes: Chimeric antigen receptor on lentivirus-transduced human T cells; also called 28T-28z comprising a 6E9 scFv
As to B2, the binding result is recorded as “binds”.

B3: 6E9.1_C28T_4Bz (other)
chain: QVHLVQSGAEVKKPGASVRVSCKASGYTFTSYYLHWVRQAPGQGLEWMGIVDPSGGSTSYDQKFQGRFTMTRDTSTSTVYMELSSLRSEDTAVYYCARDYGDYVFDYWGQGTLVTVSSGGGGSGGGGSGGGGSQSVLTQPPSASGTPGQRVTISCSGSSSNIGTNTVNWYQQLPGTAPQLLIYINNQRPSGVPDRFSGSKSGTSASLAISGLQSEDEADYYCATWDDSLNGPVVGGGTKLTVLGAAALDNEKSNGTIIHVKGKHLCPSPLFPGPSKPFWVLVVVGGVLACYSLLVTVAFIIFWVRFSVVKRGRKKLLYIFKQPFMRPVQTTQEEDGCSCRFPEEEEGGCELRVKFSRSADAPAYQQGQNQLYNELNLGRREEYDVLDKRRGRDPEMGGKPRRKNPQEGLYNELQKDKMAEAYSEIGMKGERRRGKGHDGLYQGLSTATKDTYDALHMQALPPR
notes: Chimeric antigen receptor on lentivirus-transduced human T cells; 6E9 scFv, CD28T hinge/TM, 4-1BB, CD3 zeta; also called 28T-4Bz comprising a 6E9 scFv
Turning to B3, the binding entry is on record as “binds”.

B4: 8G1.1_C28T_28z (other)
chain: QEQLVESGGGVVQPGRSLRLSCAASGFTFSSYGMHWVRQAPGKGLEWVAVTWYDGSNKYYGDSVKGRFTISRDNSKNTLYLQMNSLRAEDTAVYYCARDLLRGVKGYAMDVWGQGTTVTVSSGGGGSGGGGSGGGGSEIVLTQSPGTLSLSPGERATLSCRASQSLRRIYLAWYQQKPGQAPRLLIYDVFDRATGIPDRFSGGGSGTDFTLTISRLEPEDFAVYYCQQYSDSPFTFGPGTKVDIKRAAALDNEKSNGTIIHVKGKHLCPSPLFPGPSKPFWVLVVVGGVLACYSLLVTVAFIIFWVRSKRSRLLHSDYMNMTPRRPGPTRKHYQPYAPPRDFAAYRSRVKFSRSADAPAYQQGQNQLYNELNLGRREEYDVLDKRRGRDPEMGGKPRRKNPQEGLYNELQKDKMAEAYSEIGMKGERRRGKGHDGLYQGLSTATKDTYDALHMQALPPR
notes: also called CD70 CAR C3L; 28T-28z comprising an 8G1 scFv
As to B4, the binding result is given as “binds”.

B5: 8G1.1_C28T_4Bz (other)
chain: QEQLVESGGGVVQPGRSLRLSCAASGFTFSSYGMHWVRQAPGKGLEWVAVTWYDGSNKYYGDSVKGRFTISRDNSKNTLYLQMNSLRAEDTAVYYCARDLLRGVKGYAMDVWGQGTTVTVSSGGGGSGGGGSGGGGSEIVLTQSPGTLSLSPGERATLSCRASQSLRRIYLAWYQQKPGQAPRLLIYDVFDRATGIPDRFSGGGSGTDFTLTISRLEPEDFAVYYCQQYSDSPFTFGPGTKVDIKRAAALDNEKSNGTIIHVKGKHLCPSPLFPGPSKPFWVLVVVGGVLACYSLLVTVAFIIFWVRFSVVKRGRKKLLYIFKQPFMRPVQTTQEEDGCSCRFPEEEEGGCELRVKFSRSADAPAYQQGQNQLYNELNLGRREEYDVLDKRRGRDPEMGGKPRRKNPQEGLYNELQKDKMAEAYSEIGMKGERRRGKGHDGLYQGLSTATKDTYDALHMQALPPR
notes: Chimeric antigen receptor on lentivirus-transduced human T cells; 8G1 scFv, CD28T hinge/TM, 4-1BB, CD3 zeta; also called 28T-4Bz comprising an 8G1 scFv
With B5, the binding result is listed as “binds”.
